The supplement of paper PMC10849652
The other results are listed elsewhere or left out.

By UniProt entry, the sequences of proteins in these tests, tags left out. Where a name states a change or a piece, a line headed by the entry shows the natural chain unless it says otherwise.
UniProt Q9UG56: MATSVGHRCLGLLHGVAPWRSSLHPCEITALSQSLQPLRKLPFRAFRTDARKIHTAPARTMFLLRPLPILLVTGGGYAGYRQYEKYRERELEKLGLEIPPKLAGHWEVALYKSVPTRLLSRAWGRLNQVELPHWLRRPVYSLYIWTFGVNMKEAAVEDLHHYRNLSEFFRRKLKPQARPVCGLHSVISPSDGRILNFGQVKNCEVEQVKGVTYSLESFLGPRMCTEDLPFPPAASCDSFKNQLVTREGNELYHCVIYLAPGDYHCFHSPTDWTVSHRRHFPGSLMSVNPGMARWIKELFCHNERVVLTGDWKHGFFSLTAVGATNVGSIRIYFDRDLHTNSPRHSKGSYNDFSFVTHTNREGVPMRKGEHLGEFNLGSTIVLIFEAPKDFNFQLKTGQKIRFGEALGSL
UniProt Q32NB8: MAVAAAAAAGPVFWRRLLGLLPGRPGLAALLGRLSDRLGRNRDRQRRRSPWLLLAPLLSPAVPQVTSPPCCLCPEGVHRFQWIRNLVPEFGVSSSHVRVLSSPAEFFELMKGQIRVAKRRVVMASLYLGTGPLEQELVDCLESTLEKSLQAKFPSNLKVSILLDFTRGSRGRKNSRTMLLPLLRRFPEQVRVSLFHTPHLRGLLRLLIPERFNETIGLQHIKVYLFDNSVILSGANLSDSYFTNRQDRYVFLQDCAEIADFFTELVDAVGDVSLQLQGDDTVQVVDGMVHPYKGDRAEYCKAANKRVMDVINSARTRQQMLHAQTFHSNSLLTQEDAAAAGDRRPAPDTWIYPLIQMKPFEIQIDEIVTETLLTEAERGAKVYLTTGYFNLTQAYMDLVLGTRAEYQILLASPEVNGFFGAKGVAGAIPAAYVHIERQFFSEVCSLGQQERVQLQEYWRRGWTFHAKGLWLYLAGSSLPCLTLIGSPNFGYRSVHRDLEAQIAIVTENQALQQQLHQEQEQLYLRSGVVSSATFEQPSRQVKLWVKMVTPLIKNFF
UniProt P48739: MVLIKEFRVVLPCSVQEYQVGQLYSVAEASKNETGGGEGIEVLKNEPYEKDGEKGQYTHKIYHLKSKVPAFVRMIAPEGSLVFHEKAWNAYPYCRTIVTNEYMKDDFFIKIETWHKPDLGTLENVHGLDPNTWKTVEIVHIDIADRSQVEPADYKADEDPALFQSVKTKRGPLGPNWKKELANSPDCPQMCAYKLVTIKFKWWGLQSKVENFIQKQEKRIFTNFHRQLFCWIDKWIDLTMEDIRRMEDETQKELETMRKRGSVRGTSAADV
UniProt Q9Y446: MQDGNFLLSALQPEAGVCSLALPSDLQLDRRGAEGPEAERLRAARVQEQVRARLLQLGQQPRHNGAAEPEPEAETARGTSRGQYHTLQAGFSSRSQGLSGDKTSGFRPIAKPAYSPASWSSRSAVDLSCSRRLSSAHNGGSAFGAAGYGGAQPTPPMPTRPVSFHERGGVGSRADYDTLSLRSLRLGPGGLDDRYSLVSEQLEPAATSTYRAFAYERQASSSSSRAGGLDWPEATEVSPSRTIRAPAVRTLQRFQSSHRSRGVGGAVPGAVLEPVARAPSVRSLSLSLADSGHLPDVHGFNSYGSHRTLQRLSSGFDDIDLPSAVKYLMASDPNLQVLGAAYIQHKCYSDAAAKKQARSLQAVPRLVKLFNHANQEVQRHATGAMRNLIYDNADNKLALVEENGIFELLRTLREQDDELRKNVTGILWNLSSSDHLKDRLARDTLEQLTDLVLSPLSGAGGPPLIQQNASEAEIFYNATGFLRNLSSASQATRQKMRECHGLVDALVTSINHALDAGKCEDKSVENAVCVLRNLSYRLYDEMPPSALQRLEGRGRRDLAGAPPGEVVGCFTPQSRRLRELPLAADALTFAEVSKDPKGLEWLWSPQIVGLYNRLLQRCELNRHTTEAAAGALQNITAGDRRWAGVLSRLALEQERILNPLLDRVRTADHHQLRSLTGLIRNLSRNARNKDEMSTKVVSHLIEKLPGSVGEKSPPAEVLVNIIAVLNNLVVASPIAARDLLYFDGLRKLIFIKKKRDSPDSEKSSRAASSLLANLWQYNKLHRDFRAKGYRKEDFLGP
UniProt P42338: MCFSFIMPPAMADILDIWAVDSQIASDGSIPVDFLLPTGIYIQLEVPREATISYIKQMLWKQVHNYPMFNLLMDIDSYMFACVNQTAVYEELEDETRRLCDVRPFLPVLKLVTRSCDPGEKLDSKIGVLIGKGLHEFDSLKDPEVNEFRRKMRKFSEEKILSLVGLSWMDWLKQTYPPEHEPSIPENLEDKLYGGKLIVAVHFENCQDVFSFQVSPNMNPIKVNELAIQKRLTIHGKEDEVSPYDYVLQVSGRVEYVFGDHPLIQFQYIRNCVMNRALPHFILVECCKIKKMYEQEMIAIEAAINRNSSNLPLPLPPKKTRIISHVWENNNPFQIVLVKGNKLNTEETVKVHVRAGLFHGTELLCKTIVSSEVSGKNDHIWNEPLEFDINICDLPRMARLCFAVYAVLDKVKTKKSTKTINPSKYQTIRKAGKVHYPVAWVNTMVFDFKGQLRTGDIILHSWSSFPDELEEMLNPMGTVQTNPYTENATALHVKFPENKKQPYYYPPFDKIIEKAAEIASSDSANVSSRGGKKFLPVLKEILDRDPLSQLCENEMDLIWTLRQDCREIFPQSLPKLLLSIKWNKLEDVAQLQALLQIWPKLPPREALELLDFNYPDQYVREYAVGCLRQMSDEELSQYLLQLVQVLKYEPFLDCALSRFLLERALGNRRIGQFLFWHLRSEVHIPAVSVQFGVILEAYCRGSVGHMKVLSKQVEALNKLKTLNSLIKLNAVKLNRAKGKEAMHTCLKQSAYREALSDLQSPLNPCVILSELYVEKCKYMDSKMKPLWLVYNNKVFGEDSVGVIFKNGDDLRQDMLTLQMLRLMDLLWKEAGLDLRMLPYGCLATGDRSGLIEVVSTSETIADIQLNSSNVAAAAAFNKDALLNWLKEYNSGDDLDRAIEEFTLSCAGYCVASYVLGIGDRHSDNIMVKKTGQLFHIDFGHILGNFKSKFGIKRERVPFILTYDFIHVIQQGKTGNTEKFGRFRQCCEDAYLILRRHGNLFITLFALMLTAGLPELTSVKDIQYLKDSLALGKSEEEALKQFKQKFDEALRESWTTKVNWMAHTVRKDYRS
UniProt O60925, whole entry, looked up: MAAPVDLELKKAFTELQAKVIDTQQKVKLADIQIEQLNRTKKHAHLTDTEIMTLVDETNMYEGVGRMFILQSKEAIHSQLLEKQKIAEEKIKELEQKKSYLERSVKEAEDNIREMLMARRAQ
UniProt P18669: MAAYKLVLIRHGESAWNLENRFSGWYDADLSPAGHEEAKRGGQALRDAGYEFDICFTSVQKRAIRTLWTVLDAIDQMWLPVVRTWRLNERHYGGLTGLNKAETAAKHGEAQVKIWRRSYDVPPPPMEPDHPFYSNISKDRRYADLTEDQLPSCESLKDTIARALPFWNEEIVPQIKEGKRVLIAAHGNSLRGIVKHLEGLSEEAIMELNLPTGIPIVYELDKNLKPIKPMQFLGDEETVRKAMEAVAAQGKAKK
UniProt Q7Z7B1: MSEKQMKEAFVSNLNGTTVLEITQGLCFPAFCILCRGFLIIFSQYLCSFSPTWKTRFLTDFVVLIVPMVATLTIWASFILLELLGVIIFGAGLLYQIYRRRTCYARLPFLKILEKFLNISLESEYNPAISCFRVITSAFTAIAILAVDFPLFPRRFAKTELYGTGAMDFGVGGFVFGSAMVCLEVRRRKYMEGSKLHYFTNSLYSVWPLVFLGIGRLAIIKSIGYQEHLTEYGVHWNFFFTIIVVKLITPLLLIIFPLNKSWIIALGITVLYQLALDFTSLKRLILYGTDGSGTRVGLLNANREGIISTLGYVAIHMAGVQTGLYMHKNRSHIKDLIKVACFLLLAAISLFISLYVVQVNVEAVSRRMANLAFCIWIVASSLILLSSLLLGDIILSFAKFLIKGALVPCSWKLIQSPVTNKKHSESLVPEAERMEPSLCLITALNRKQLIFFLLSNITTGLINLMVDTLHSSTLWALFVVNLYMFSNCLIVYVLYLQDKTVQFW
UniProt Q8N0Y7: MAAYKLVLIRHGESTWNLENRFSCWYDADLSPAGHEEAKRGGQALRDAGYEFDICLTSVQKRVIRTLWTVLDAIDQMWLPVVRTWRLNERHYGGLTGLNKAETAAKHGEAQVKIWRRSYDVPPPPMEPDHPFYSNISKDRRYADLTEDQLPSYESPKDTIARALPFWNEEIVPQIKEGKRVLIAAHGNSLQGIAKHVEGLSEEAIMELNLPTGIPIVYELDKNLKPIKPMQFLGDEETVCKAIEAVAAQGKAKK
UniProt P52209: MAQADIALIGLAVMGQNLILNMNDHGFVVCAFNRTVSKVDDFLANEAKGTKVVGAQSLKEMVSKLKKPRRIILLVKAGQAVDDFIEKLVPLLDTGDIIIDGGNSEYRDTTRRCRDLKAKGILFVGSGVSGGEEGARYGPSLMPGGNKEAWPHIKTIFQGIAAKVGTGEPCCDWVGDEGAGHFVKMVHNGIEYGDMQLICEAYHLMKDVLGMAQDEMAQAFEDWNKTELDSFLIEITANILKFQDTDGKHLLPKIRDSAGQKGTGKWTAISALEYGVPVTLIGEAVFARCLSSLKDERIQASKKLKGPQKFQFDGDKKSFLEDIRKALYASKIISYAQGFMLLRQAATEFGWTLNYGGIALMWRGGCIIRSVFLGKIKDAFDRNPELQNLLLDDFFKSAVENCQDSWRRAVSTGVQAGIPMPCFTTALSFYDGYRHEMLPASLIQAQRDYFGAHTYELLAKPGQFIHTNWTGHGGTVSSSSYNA
UniProt Q5JRX3: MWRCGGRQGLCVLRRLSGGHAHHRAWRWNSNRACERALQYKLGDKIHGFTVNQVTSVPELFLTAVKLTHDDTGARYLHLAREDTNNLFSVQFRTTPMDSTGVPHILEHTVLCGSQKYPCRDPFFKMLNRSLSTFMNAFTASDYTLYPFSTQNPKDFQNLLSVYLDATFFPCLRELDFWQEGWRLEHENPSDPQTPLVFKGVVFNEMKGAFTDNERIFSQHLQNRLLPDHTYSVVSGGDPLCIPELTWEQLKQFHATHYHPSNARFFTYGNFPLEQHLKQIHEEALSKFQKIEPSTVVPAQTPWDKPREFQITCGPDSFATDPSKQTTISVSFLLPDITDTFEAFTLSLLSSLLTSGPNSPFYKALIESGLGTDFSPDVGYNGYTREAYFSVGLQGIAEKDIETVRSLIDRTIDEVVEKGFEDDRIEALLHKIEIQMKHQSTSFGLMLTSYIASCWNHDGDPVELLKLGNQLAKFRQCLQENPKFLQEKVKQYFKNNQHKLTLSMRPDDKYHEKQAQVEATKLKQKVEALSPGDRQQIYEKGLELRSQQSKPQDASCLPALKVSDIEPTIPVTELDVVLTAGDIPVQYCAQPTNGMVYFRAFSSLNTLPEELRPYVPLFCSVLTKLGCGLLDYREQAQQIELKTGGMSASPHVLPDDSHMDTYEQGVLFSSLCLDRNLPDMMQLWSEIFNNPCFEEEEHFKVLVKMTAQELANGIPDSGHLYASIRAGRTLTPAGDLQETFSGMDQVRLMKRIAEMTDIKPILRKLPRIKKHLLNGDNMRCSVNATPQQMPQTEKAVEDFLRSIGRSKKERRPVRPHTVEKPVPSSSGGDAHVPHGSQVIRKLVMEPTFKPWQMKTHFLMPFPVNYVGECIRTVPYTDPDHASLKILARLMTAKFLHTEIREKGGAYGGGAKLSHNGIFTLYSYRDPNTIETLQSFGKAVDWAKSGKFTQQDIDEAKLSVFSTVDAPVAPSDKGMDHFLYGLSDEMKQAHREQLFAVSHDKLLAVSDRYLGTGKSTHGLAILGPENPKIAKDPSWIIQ
PIGBOS1, A0A0B4J2F0, UniProt A0A0B4J2F0, whole entry, looked up: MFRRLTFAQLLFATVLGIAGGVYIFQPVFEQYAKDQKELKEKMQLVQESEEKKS
UniProt Q8IWS0: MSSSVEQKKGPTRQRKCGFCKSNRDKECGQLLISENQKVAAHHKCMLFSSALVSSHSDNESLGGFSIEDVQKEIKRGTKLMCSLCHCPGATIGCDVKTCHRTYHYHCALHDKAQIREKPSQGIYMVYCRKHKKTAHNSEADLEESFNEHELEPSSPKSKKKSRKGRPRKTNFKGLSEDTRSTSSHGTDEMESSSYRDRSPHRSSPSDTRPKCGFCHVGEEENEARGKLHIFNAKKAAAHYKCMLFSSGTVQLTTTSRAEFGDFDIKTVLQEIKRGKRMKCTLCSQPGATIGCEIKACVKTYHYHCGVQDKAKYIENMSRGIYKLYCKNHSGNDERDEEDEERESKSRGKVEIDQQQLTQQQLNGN
UniProt Q8N4L2: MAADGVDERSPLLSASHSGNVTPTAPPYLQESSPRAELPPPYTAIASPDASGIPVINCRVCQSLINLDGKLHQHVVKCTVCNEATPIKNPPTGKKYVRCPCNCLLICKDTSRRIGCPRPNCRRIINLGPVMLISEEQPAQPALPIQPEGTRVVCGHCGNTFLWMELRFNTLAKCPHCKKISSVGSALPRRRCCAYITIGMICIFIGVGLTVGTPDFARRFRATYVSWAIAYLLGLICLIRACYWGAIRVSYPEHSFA
UniProt Q7RTV0, whole entry, looked up: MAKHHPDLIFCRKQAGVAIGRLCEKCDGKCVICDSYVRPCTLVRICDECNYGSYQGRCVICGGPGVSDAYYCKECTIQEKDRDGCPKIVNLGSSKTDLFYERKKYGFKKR

Assays:
Test in all cases: log2 fold change, soluble protein after heating vs DMSO (PISA); higher = thermal stabilisation; K562 cells, 10 uM, 30 min; active = over 0.2 and 3.5 SD of the protein, either way, in both replicates (recomputed)
[1] = compound: NC(=O)Nc1cc(-c2cccc(F)c2)sc1C(=O)N[C@H]1CCCNC1
Summary of the method: (§1)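 Thermal stability values are relative to control samples and come from duplicates. They are expressed as log2 fold changes. For measurement, K562 cells (2×10^6 cells/mL) received 10 μM compound for 30 min, and aliquots were heated for 3 min over 48°C-58°C, pooled, and extracted at 4°C in PBS with 0.5% NP-40. Soluble protein, the supernatant after 21,000xg for 90 min, was quantified by TMTpro 16plex LC-MS/MS with equalised channel sums.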

[2] = compound: NC(=O)c1cnc(N[C@@H]2CCCC[C@@H]2N)nc1Nc1cccc(-n2nccn2)c1
Summary of the method: as §1

[3] = compound: NC1(c2ccc(-c3nc4ccn5c(=O)[nH]nc5c4cc3-c3ccccc3)cc2)CCC1
Summary of the method: as §1

[4] = compound: NCC(=O)Nc1ccc(-n2nc(C(F)(F)F)cc2-c2ccc3c(ccc4ccccc43)c2)cc1
Summary of the method: as §1

entinostat = compound: Nc1ccccc1NC(=O)c1ccc(CNC(=O)OCc2cccnc2)cc1 [entinostat]
Summary of the method: as §1

vorinostat = compound: O=C(CCCCCCC(=O)Nc1ccccc1)NO [vorinostat]
Summary of the method: as §1

citarinostat = compound: O=C(CCCCCCNC(=O)c1cnc(N(c2ccccc2)c2ccccc2Cl)nc1)NO [citarinostat]
Summary of the method: as §1

silmitasertib = compound: O=C(O)c1ccc2c(c1)nc(Nc1cccc(Cl)c1)c1ccncc12 [silmitasertib]
Summary of the method: as §1

[5] = compound: O=C1NC(=O)C(c2cnc3ccccn23)=C1c1cn2c3c(cc(F)cc13)CN(C(=O)N1CCCCC1)CC2
Summary of the method: as §1

[6] = compound: c1cc(OCCN2CCCCC2)cc(-c2n[nH]c3ccc(-c4nnc[nH]4)cc23)c1
Summary of the method: as §1

Row | Target | log2 fold change [1] | log2 fold change [2] | log2 fold change [3] | log2 fold change [4] | log2 fold change (entinostat) | log2 fold change (vorinostat) | log2 fold change (citarinostat) | log2 fold change (silmitasertib) | log2 fold change [5] | log2 fold change [6]
1 | PFN1 (UniProt P07737) | inactive: -0.015 | inactive: -0.007 | inactive: -0.049 | inactive: -0.051 | inactive: 0.013 | inactive: -0.013 | inactive: 0.038 | inactive: -0.004 | inactive: -0.026 | inactive: -0.02
2 | PISD (UniProt Q9UG56) | inactive: 0.023 | inactive: 0.019 | inactive: -0.009 | inactive: 0.045 | inactive: -0.047 | inactive: 0.069 | inactive: 0.035 | inactive: -0.019 | inactive: -0.097 | inactive: -0.006
3 | PIN1 (UniProt Q13526) | inactive: -0.018 | inactive: 0.004 | inactive: -0.025 | inactive: 0.031 | inactive: 0.042 | inactive: -0.042 | inactive: 0.106 | inactive: 0.037 | inactive: -0.08 | inactive: 0.09
4 | PHB2 (UniProt Q99623) | inactive: 0.037 | inactive: -0.014 | inactive: -0.014 | inactive: 0.003 | inactive: -0.004 | inactive: -0.006 | inactive: 0.012 | inactive: -0.01 | inactive: 0.029 | inactive: -0.008
5 | PFDN2 (UniProt Q9UHV9) | inactive: 0.021 | inactive: -0.027 | inactive: 0.009 | inactive: 0.02 | inactive: -0.004 | inactive: -0.02 | inactive: 0.043 | inactive: 0.001 | inactive: -0.036 | inactive: -0.003
6 | PGS1 (UniProt Q32NB8) | inactive: 0.081 | inactive: -0.028 | inactive: -0.122 | inactive: 0.047 | inactive: 0.117 | inactive: -0.021 | inactive: -0.051 | inactive: -0.06 | inactive: -0.021 | inactive: -0.044
7 | PIP (UniProt P12273) | inactive: 1.13 | inactive: 0.153 | inactive: 0.208 | inactive: 0.225 | inactive: 0.302 | inactive: 0.153 | inactive: -0.553 | inactive: -0.122 | inactive: 0.011 | inactive: 0.541
8 | PITPNB isoform 3 (UniProt P48739) | inactive: -0.029 | inactive: -0.005 | inactive: 0.051 | inactive: -0.021 | inactive: -0.038 | inactive: -0.033 | inactive: 0.035 | inactive: -0.016 | inactive: 0.004 | inactive: -0.035
9 | PIGG (UniProt Q5H8A4) | inactive: -0.046 | inactive: -0.032 | inactive: -0.06 | inactive: 0.052 | inactive: 0.039 | inactive: -0.104 | inactive: 0.052 | inactive: 0.025 | inactive: -0.019 | inactive: 0.029
10 | PITHD1 (UniProt Q9GZP4) | inactive: -0.009 | inactive: -0.004 | inactive: 0.056 | inactive: 0 | inactive: 0.04 | inactive: -0.042 | inactive: -0.036 | inactive: 0 | inactive: -0.048 | inactive: 0
11 | PLCB3 (UniProt Q01970) | inactive: -0.005 | inactive: -0.086 | inactive: -0.141 | inactive: -0.023 | inactive: 0.037 | inactive: -0.008 | inactive: -0.007 | inactive: 0.008 | inactive: 0.005 | inactive: 0.064
12 | PFKFB2 (UniProt O60825) | inactive: 0.003 | inactive: -0.009 | inactive: -0.08 | inactive: -0.026 | inactive: 0.006 | inactive: 0 | inactive: 0.018 | inactive: -0.052 | inactive: -0.01 | inactive: 0.007
13 | PGK1 (UniProt P00558) | inactive: -0.031 | inactive: -0.029 | inactive: -0.03 | inactive: -0.028 | inactive: -0.021 | inactive: -0.016 | inactive: 0.004 | inactive: -0.049 | inactive: -0.042 | inactive: -0.005
14 | PKP3 isoform 2 (UniProt Q9Y446) | inactive: -0.045 | inactive: 0.032 | inactive: 0.081 | inactive: 0 | inactive: 0.187 | inactive: 0.281 | inactive: -0.038 | inactive: 0.068 | inactive: 0.252 | inactive: -0.133
15 | PIK3CB (UniProt P42338) | inactive: -0.057 | inactive: -0.106 | inactive: -0.008 | inactive: -0.102 | inactive: 0.014 | inactive: 0.001 | inactive: 0.003 | inactive: -0.053 | inactive: -0.039 | inactive: -0.049
16 | PGGHG (UniProt Q32M88) | inactive: -0.036 | inactive: -0.155 | inactive: -0.051 | inactive: 0.083 | inactive: -0.033 | inactive: 0.019 | inactive: -0.009 | inactive: 0.073 | inactive: -0.076 | inactive: 0.058
17 | PFDN1 (UniProt O60925) | inactive: 0.013 | inactive: 0.003 | inactive: 0.002 | inactive: -0.047 | inactive: 0.044 | inactive: -0.056 | inactive: 0.09 | inactive: -0.029 | inactive: -0.05 | inactive: -0.001
18 | PGAM1 (UniProt P18669) | inactive: 0.086 | inactive: 0.004 | inactive: 0.05 | inactive: 0.027 | inactive: -0.006 | inactive: 0.019 | inactive: -0.018 | inactive: -0.037 | inactive: -0.006 | inactive: 0.044
19 | PIGW (UniProt Q7Z7B1) | inactive: 0.048 | inactive: -0.012 | inactive: -0.121 | inactive: -0.084 | inactive: 0.006 | inactive: -0.027 | inactive: 0.009 | inactive: -0.045 | inactive: -0.015 | inactive: 0.071
20 | PKM isoform 2 (UniProt P14618) | inactive: 0.123 | inactive: 0.175 | inactive: -0.063 | inactive: 0.116 | inactive: 0.05 | inactive: -0.195 | inactive: -0.075 | inactive: -0.052 | inactive: 0.043 | inactive: -0.093
21 | PGAM4 (UniProt Q8N0Y7) | inactive: 0.034 | inactive: 0.034 | inactive: 0.02 | inactive: 0.021 | inactive: -0.047 | inactive: -0.03 | inactive: 0.01 | inactive: -0.018 | inactive: -0.024 | inactive: 0.025
22 | PLEC (UniProt Q15149) | inactive: -0.047 | inactive: 0.015 | inactive: 0.122 | inactive: -0.052 | inactive: -0.019 | inactive: 0.032 | inactive: 0.011 | inactive: -0.019 | inactive: 0.028 | inactive: -0.04
23 | PGD (UniProt P52209) | inactive: -0.012 | inactive: 0.007 | inactive: -0.069 | inactive: -0.009 | inactive: -0.01 | inactive: 0.019 | inactive: 0.011 | inactive: -0.058 | inactive: -0.026 | inactive: -0.006
24 | PITRM1 isoform 2 (UniProt Q5JRX3) | inactive: 0.116 | inactive: -0.077 | inactive: -0.051 | inactive: -0.061 | inactive: 0.097 | inactive: 0.089 | inactive: 0.104 | inactive: -0.045 | inactive: 0.05 | inactive: 0.096
25 | PIGBOS1, A0A0B4J2F0 | inactive: -0.059 | inactive: -0.076 | inactive: -0.01 | inactive: 0.061 | inactive: 0.066 | inactive: -0.117 | inactive: 0.024 | inactive: -0.032 | inactive: -0.025 | inactive: 0.072
26 | PHF6 (UniProt Q8IWS0) | inactive: -0.005 | inactive: 0.063 | inactive: 0.307 | inactive: 0.031 | inactive: -0.061 | inactive: 0.005 | inactive: -0.027 | inactive: 0.137 | inactive: 0.076 | inactive: -0.152
27 | PIP4P2 (UniProt Q8N4L2) | inactive: 0.02 | inactive: -0.152 | active: -0.373 | inactive: -0.024 | inactive: 0.007 | inactive: 0.042 | inactive: -0.02 | inactive: 0.074 | inactive: 0.082 | inactive: 0.051
28 | PIK3R2 (UniProt O00459) | inactive: -0.01 | inactive: -0.05 | inactive: 0.027 | inactive: 0.032 | inactive: 0.099 | inactive: -0.051 | inactive: 0.14 | inactive: 0.031 | inactive: 0.016 | inactive: -0.048
29 | PHPT1 (UniProt Q9NRX4) | inactive: -0.049 | inactive: -0.066 | inactive: -0.025 | inactive: -0.014 | inactive: 0 | inactive: -0.024 | inactive: 0.019 | inactive: 0.01 | inactive: -0.072 | inactive: 0.018
30 | PHF5A (UniProt Q7RTV0) | inactive: -0.004 | inactive: 0.009 | inactive: 0.101 | inactive: 0.051 | inactive: -0.017 | inactive: -0.08 | inactive: 0.014 | inactive: 0.082 | inactive: -0.024 | inactive: -0.003

Two records picked at random from the list so far:
Row | Target | log2 fold change [1] | log2 fold change [2] | log2 fold change [3] | log2 fold change [4] | log2 fold change (entinostat) | log2 fold change (vorinostat) | log2 fold change (citarinostat) | log2 fold change (silmitasertib) | log2 fold change [5] | log2 fold change [6]
27 | PIP4P2 (UniProt Q8N4L2) | inactive: 0.02 | inactive: -0.152 | active: -0.373 | inactive: -0.024 | inactive: 0.007 | inactive: 0.042 | inactive: -0.02 | inactive: 0.074 | inactive: 0.082 | inactive: 0.051
20 | PKM isoform 2 (UniProt P14618) | inactive: 0.123 | inactive: 0.175 | inactive: -0.063 | inactive: 0.116 | inactive: 0.05 | inactive: -0.195 | inactive: -0.075 | inactive: -0.052 | inactive: 0.043 | inactive: -0.093
